The series deals with Nav1.5 (Homo sapiens, UniProt Q14524). Kind of series: in vitro. Conditions: cells (cell line not given) carrying the Nav1.5 channel, Mean % inhibition (positive control), n=2.

The chains behind the UniProt entries cited, without tags or fusion partners.
UniProt Q14524, whole entry: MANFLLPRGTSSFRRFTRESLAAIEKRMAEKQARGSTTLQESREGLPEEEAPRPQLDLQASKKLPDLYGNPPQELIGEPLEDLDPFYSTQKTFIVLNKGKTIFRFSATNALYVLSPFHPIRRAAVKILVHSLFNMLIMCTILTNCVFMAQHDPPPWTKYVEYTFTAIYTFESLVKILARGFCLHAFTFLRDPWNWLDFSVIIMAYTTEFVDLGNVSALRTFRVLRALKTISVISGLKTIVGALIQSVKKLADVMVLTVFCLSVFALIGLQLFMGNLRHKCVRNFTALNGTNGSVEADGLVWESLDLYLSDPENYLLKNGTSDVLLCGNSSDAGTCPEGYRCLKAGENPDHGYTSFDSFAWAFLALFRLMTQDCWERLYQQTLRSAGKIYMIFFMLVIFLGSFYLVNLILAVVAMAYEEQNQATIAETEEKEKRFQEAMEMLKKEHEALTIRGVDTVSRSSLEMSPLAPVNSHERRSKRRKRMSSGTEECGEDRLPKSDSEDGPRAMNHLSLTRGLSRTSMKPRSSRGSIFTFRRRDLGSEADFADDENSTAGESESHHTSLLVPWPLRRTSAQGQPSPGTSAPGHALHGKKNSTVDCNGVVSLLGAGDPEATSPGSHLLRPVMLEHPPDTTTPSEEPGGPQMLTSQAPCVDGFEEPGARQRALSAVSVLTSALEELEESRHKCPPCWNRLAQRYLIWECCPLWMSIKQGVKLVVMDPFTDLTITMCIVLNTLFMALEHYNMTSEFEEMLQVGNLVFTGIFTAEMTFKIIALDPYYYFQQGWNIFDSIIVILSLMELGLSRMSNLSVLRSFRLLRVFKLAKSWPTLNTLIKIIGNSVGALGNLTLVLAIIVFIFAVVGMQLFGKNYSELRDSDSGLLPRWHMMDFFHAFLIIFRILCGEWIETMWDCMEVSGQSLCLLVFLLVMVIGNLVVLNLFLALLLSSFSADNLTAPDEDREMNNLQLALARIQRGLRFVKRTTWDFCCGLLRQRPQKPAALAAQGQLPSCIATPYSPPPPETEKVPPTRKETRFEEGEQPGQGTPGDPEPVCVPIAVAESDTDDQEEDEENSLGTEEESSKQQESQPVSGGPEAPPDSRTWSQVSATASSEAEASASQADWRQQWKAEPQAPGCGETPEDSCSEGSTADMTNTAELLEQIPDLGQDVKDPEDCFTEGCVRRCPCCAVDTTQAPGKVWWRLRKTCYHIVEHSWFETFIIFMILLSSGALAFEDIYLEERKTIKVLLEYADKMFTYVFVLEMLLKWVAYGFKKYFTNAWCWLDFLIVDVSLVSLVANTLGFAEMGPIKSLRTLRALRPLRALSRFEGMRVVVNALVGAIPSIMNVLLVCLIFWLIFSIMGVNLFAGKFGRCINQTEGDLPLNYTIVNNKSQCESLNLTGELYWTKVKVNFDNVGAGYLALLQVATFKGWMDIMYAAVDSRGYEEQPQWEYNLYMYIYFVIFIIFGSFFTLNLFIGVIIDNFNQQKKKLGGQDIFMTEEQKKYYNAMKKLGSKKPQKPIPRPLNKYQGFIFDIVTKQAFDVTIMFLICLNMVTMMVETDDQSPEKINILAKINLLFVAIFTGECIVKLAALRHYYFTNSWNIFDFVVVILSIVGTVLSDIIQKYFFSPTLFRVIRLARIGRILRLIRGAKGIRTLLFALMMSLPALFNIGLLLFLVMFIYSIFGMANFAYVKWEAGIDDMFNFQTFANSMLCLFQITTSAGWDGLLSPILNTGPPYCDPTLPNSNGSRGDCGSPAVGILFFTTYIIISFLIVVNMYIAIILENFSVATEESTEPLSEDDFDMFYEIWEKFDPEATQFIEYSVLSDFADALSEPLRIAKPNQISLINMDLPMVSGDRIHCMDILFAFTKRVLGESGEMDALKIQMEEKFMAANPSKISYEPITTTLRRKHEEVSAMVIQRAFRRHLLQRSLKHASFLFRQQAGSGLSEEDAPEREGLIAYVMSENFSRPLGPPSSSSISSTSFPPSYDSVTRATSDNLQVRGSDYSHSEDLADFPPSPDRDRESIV

In general, inhibition refers to the relative decrease from the control value, in per cent.

`CCN(CC)CC(=O)Nc1c(C)cccc1C` [Lidocaine]: the inhibition at 5 min, 2000 µM was 98.5%.

Source of the values: US8541395B2 (priority 2009, dated 2013).
